In ChEMBL document CHEMBL4316593 (Eur J Med Chem, 2019):
Further values from the same series stand in other lists.

Key:
Type in all cases: cell-based
Conditions in all cases: U-87MG ATCC
[1] = Inhibition of RTK/PI3K/AKT/mTOR signaling in human U87 cells assessed as down regulation of HJURP gene expression at cytotoxic IC50 measured after 48 hrs relative to control
[2] = Inhibition of RTK/PI3K/AKT/mTOR signaling in human U87 cells assessed as up regulation of ubiquinol-cytochrome c reductase complex assembly factor 1 gene expression at cytotoxic IC50 measured after 48 hrs relative to control
[3] = Inhibition of RTK/PI3K/AKT/mTOR signaling in human U87 cells assessed as down regulation of NR4A3 gene expression at cytotoxic IC50 measured after 48 hrs relative to control
[4] = Inhibition of RTK/PI3K/AKT/mTOR signaling in human U87 cells assessed as up regulation of CASC8 gene expression at cytotoxic IC50 measured after 48 hrs relative to control
[5] = Inhibition of RTK/PI3K/AKT/mTOR signaling in human U87 cells assessed as up regulation of SLC17A9 gene expression at cytotoxic IC50 measured after 48 hrs relative to control
[6] = Inhibition of RTK/PI3K/AKT/mTOR signaling in human U87 cells assessed as down regulation of ULK1 gene expression at cytotoxic IC50 measured after 48 hrs relative to control
[7] = Inhibition of RTK/PI3K/AKT/mTOR signaling in human U87 cells assessed as down regulation of ETV5 gene expression at cytotoxic IC50 measured after 48 hrs relative to control
[8] = Inhibition of RTK/PI3K/AKT/mTOR signaling in human U87 cells assessed as up regulation of pleckstrin homology and RhoGEF domain containing G4 gene expression at cytotoxic IC50 measured after 48 hrs relative to control
[9] = Inhibition of RTK/PI3K/AKT/mTOR signaling in human U87 cells assessed as down regulation of ANXA7 gene expression at cytotoxic IC50 measured after 48 hrs relative to control
[10] = Inhibition of RTK/PI3K/AKT/mTOR signaling in human U87 cells assessed as up regulation of PABPC1 gene expression at cytotoxic IC50 measured after 48 hrs relative to control
[11] = Inhibition of RTK/PI3K/AKT/mTOR signaling in human U87 cells assessed as down regulation of DDX5 gene expression at cytotoxic IC50 measured after 48 hrs relative to control
[12] = Inhibition of RTK/PI3K/AKT/mTOR signaling in human U87 cells assessed as up regulation of RPL37 gene expression at cytotoxic IC50 measured after 48 hrs relative to control
[13] = Inhibition of RTK/PI3K/AKT/mTOR signaling in human U87 cells assessed as down regulation of SP100 gene expression at cytotoxic IC50 measured after 48 hrs relative to control
[14] = Inhibition of RTK/PI3K/AKT/mTOR signaling in human U87 cells assessed as down regulation of POLR2L gene expression at cytotoxic IC50 measured after 48 hrs relative to control
[15] = Inhibition of RTK/PI3K/AKT/mTOR signaling in human U87 cells assessed as up regulation of carboxymethylenebutenolidase homolog gene expression at cytotoxic IC50 measured after 48 hrs relative to control
[16] = Inhibition of RTK/PI3K/AKT/mTOR signaling in human U87 cells assessed as up regulation of F-box protein 17 gene expression at cytotoxic IC50 measured after 48 hrs relative to control
[17] = Inhibition of RTK/PI3K/AKT/mTOR signaling in human U87 cells assessed as up regulation of protein-glucosylgalactosylhydroxylysine glucosidase gene expression at cytotoxic IC50 measured after 48 hrs relative to control
[18] = Inhibition of RTK/PI3K/AKT/mTOR signaling in human U87 cells assessed as up regulation of ADAMTS14 gene expression at cytotoxic IC50 measured after 48 hrs relative to control
[19] = Inhibition of RTK/PI3K/AKT/mTOR signaling in human U87 cells assessed as up regulation of glutamyl-tRNA synthetase 2, mitochondrial gene expression at cytotoxic IC50 measured after 48 hrs relative to control
[20] = Inhibition of RTK/PI3K/AKT/mTOR signaling in human U87 cells assessed as up regulation of SEMA3B gene expression at cytotoxic IC50 measured after 48 hrs relative to control
[21] = Inhibition of RTK/PI3K/AKT/mTOR signaling in human U87 cells assessed as down regulation of CENPN gene expression at cytotoxic IC50 measured after 48 hrs relative to control
[22] = Inhibition of RTK/PI3K/AKT/mTOR signaling in human U87 cells assessed as down regulation of MAPRE2 gene expression at cytotoxic IC50 measured after 48 hrs relative to control
[23] = Inhibition of RTK/PI3K/AKT/mTOR signaling in human U87 cells assessed as down regulation of ELP4 gene expression at cytotoxic IC50 measured after 48 hrs relative to control
[24] = Inhibition of RTK/PI3K/AKT/mTOR signaling in human U87 cells assessed as down regulation of MIR4435-2HG gene expression at cytotoxic IC50 measured after 48 hrs relative to control
[25] = Inhibition of RTK/PI3K/AKT/mTOR signaling in human U87 cells assessed as up regulation of anoctamin 9 gene expression at cytotoxic IC50 measured after 48 hrs relative to control
[26] = Inhibition of RTK/PI3K/AKT/mTOR signaling in human U87 cells assessed as down regulation of FBXO8 gene expression at cytotoxic IC50 measured after 48 hrs relative to control
[27] = Inhibition of RTK/PI3K/AKT/mTOR signaling in human U87 cells assessed as down regulation of SHCBP1 gene expression at cytotoxic IC50 measured after 48 hrs relative to control
[28] = Inhibition of RTK/PI3K/AKT/mTOR signaling in human U87 cells assessed as down regulation of PCNX2 gene expression at cytotoxic IC50 measured after 48 hrs relative to control
[29] = Inhibition of RTK/PI3K/AKT/mTOR signaling in human U87 cells assessed as up regulation of mex-3 RNA binding family member A gene expression at cytotoxic IC50 measured after 48 hrs relative to control
[30] = Inhibition of RTK/PI3K/AKT/mTOR signaling in human U87 cells assessed as down regulation of SZRD1 gene expression at cytotoxic IC50 measured after 48 hrs relative to control
[31] = Inhibition of RTK/PI3K/AKT/mTOR signaling in human U87 cells assessed as up regulation of CSPG4 gene expression at cytotoxic IC50 measured after 48 hrs relative to control
[32] = Inhibition of RTK/PI3K/AKT/mTOR signaling in human U87 cells assessed as down regulation of CAPN5 gene expression at cytotoxic IC50 measured after 48 hrs relative to control

CC(=O)C(=NNc1ccccc1C#N)C(C)=O
log2FC [1]: -0.843
log2FC [2]: 0.655
log2FC [3]: -2.4
log2FC [4]: 1.7
log2FC [5]: 1.96
log2FC [6]: -1.15
log2FC [7]: -0.707
log2FC [8]: 1.12
log2FC [9]: -0.567
log2FC [10]: 0.292
log2FC [11]: -0.685
log2FC [12]: 0.415
log2FC [13]: -0.597
log2FC [14]: -1.24
log2FC [15]: 1.29
log2FC [16]: 1.25
log2FC [17]: 1.21
log2FC [18]: 2
log2FC [19]: 0.716
log2FC [20]: 2.4
log2FC [21]: -1.07
log2FC [22]: -1.73
log2FC [23]: -1.02
log2FC [24]: -0.785
log2FC [25]: 1.1
log2FC [26]: -0.908
log2FC [27]: -1.07
log2FC [28]: -0.747
log2FC [29]: 1.51
log2FC [30]: -0.647
log2FC [31]: 1.76
log2FC [32]: -1.93
